{"source": "PubChem BioAssay AID1671195 (Yale University, 2021)", "purpose": "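Genes whose knockdown alters LDL uptake in liver cancer cells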 (primary screen)", "cell system": "human Huh7 hepatoma cells", "reagents": "siRNA pool against human genes, 18 nM", "timing": "about 2 to 2.5 days of knockdown, then 8 h LDL uptake", "challenge": "DiI-labelled LDL at 30 µg/ml for 8 h, in lipoprotein-deficient serum medium", "measured": "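Per-cell DiI-LDL intensity by automated imaging; well means scaled to the plate median and given as a robust z-score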", "reading the numbers": "robust z-score: higher = more LDL uptake after knockdown", "active means": "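a gene counts as active if at least two replicate z-scores exceed ±2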", "note": "Here is an unselected part of about 22,000 reagents tested. About 1,510 of them (6.9%) count as active. 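Active includes knockdowns raising or lowering LDL uptake; positive z-scores mean more uptake, negative mean less.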"}
{"gene": "KHSRP", "PubChem SID": "SID442885914", "robust z-score, replicate 1": 1.52, "robust z-score, replicate 2": 0.591, "robust z-score, replicate 3": 1.87, "Outcome": "inactive"}
{"gene": "KBTBD4", "PubChem SID": "SID442901475", "robust z-score, replicate 1": -1.7, "robust z-score, replicate 2": -0.167, "robust z-score, replicate 3": -0.845, "Outcome": "inactive"}
{"gene": "KRTAP13-4", "PubChem SID": "SID442884570", "robust z-score, replicate 1": -2.29, "robust z-score, replicate 2": -2.75, "robust z-score, replicate 3": -2.72, "Outcome": "active"}
{"gene": "DHX37", "PubChem SID": "SID442898239", "robust z-score, replicate 1": -0.833, "robust z-score, replicate 2": -0.0552, "robust z-score, replicate 3": -0.541, "Outcome": "inactive"}
{"gene": "SLC5A1", "PubChem SID": "SID442899963", "robust z-score, replicate 1": -0.689, "robust z-score, replicate 2": -0.693, "robust z-score, replicate 3": -0.694, "Outcome": "inactive"}
{"gene": "CRYGB", "PubChem SID": "SID442899088", "robust z-score, replicate 1": -0.723, "robust z-score, replicate 2": -0.918, "robust z-score, replicate 3": -0.0845, "Outcome": "inactive"}
{"gene": "PART1", "PubChem SID": "SID442887214", "robust z-score, replicate 1": 0.878, "robust z-score, replicate 2": 1.83, "robust z-score, replicate 3": 0.171, "Outcome": "inactive"}
{"gene": "GFPT1", "PubChem SID": "SID442884681", "robust z-score, replicate 1": 2.63, "robust z-score, replicate 2": 1.57, "robust z-score, replicate 3": 1.77, "Outcome": "inactive"}
{"gene": "YTHDC2", "PubChem SID": "SID442896099", "robust z-score, replicate 1": -0.104, "robust z-score, replicate 2": -0.292, "robust z-score, replicate 3": -0.319, "Outcome": "inactive"}
{"gene": "LOC401191", "PubChem SID": "SID442885889", "robust z-score, replicate 1": 1.84, "robust z-score, replicate 2": 0.00294, "robust z-score, replicate 3": 2.15, "Outcome": "inactive"}
{"gene": "NELL1", "PubChem SID": "SID442895538", "robust z-score, replicate 1": -0.955, "robust z-score, replicate 2": 1.1, "robust z-score, replicate 3": -0.684, "Outcome": "inactive"}
{"gene": "CD3D", "PubChem SID": "SID442885204", "robust z-score, replicate 1": 1.67, "robust z-score, replicate 2": 1.55, "robust z-score, replicate 3": 1.65, "Outcome": "inactive"}
{"gene": "F2RL3", "PubChem SID": "SID442901114", "robust z-score, replicate 1": -1.1, "robust z-score, replicate 2": -0.276, "robust z-score, replicate 3": -1.18, "Outcome": "inactive"}
{"gene": "COQ10A", "PubChem SID": "SID442885518", "robust z-score, replicate 1": 1.61, "robust z-score, replicate 2": 1.15, "robust z-score, replicate 3": 1.69, "Outcome": "inactive"}
{"gene": "TRIM68", "PubChem SID": "SID442883300", "robust z-score, replicate 1": 4.96, "robust z-score, replicate 2": 1.9, "robust z-score, replicate 3": 3.21, "Outcome": "active"}
{"gene": "PEX13", "PubChem SID": "SID442902327", "robust z-score, replicate 1": -0.712, "robust z-score, replicate 2": -0.276, "robust z-score, replicate 3": -2.16, "Outcome": "inactive"}
